Among the data in patent publication US9475840B2 (UNIVERSITAT DE BARCELONA, priority 2012, dated 2016) are isolated yield values, retold here.

Strings that start with PEPTIDE1 are HELM notation: dots part the residues, brackets hold end groups and non-standard residues.

A short description of the data set: general procedure: Fmoc solid-phase peptide synthesis; Fmoc-Rink amide p-MBHA resin; TBTU/DIEA; PyBOP/HOAt/DIEA. To be noted: whole synthesis, synthesis and purification, scale of the general procedure 200 μmol.
Take “5(6)-Carboxyfluorescein-D-Pro-D-Trp-D-Val-D-Pro-D-Ser-D-Trp-D-Met-D-Pro-D-Pro-D-Arg-D-His-D-Thr-NH2”: the isolated yield was determined as 4.2%. Then “HELM PEPTIDE1{[dA].[CN([C@H](Cc1ccccc1)C(=O)[*:2])[*:1]].[O=C([C@@H](Cc1ccc2ccccc2c1)N[*:1])[*:2]].[dV].[dL].[dK].[dK].[dP].[dW].[dV].[dP].[dS].[dW].[dM].[dP].[dP].[dR].[dH].[dT].[am]}$$$$V2.0 (SMILES CSCC[C@@H](NC(=O)[C@@H](Cc1c[nH]c2ccccc12)NC(=O)[C@@H](CO)NC(=O)[C@H]1CCCN1C(=O)[C@H](NC(=O)[C@@H](Cc1c[nH]c2ccccc12)NC(=O)[C@H]1CCCN1C(=O)[C@@H](CCCCN)NC(=O)[C@@H](CCCCN)NC(=O)[C@@H](CC(C)C)NC(=O)[C@H](NC(=O)[C@@H](Cc1ccc2ccccc2c1)NC(=O)[C@@H](Cc1ccccc1)N(C)C(=O)[C@@H](C)N)C(C)C)C(C)C)C(=O)N1CCC[C@@H]1C(=O)N1CCC[C@@H]1C(=O)N[C@H](CCCNC(=N)N)C(=O)N[C@H](Cc1c[nH]cn1)C(=O)N[C@@H](C(N)=O)[C@H](C)O)”, with 9.5%; and “PEPTIDE1{[DOPA].[dP].[dW].[dV].[dP].[dS].[dW].[dM].[dP].[dP].[dR].[dH].[dT].[am]}$$$$V2.0”, with 3.8%.
